Results deposited as PubChem BioAssay AID1259308 (NCATS, 2017)
The whole screen tested about 59,000 reagents; below is a random part of them. About 1,510 of them (2.6%) count as active. 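Calls use total luciferase alone and ignore viability, so some active siRNAs may act by altering cell number.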 No sequences are given here.

Test: 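Knock-downs that increase output of a recombinant reporter protein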 (primary screen)
Cell system: human HEK293 embryonic kidney cells stably expressing firefly luciferase (HEK-CMV-Luc2-Hygro)
Knock-down reagent: single siRNA against human genes, 0.8 pmol siRNA per well
Duration: 72 h
Read-out: 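Luciferase light (ONE-Glo) measured on one replicate plate set and viability (CellTiter-Glo) on the other, scaled to a negative control siRNA, with robust z-scores and luciferase per cell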
Reading the numbers: total luciferase, z-score and total luciferase, % of control: higher = more reporter protein produced; luciferase per cell, z-score: higher = more reporter output per viable cell; viable cells, % of control: higher = more viable cells
Call rule: 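An siRNA counts as active if its total luciferase robust z-score exceeds 3; genes with two or more such siRNAs out of three were retested with fresh siRNAs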
Meaning of the calls: active = raised luciferase; inactive = no rise

| Target gene | PubChem SID | total luciferase, z-score | total luciferase, % of control | luciferase per cell, z-score | viable cells, % of control | Call |
| --- | --- | --- | --- | --- | --- | --- |
| PTCHD1 (patched domain containing 1) | SID160757697 | -1.91 | 43.9 | -1.33 | 69.7 | inactive |
| PTCHD1 (patched domain containing 1) | SID160757698 | 0.476 | 91.4 | 0.594 | 87.3 | inactive |
| PTCHD1 (patched domain containing 1) | SID160757699 | 0.59 | 93.6 | 0.245 | 98.1 | inactive |
| FTO (FTO alpha-ketoglutarate dependent dioxygenase) | SID160748571 | 0.887 | 99.5 | 0.991 | 85.7 | inactive |
| FTO (FTO alpha-ketoglutarate dependent dioxygenase) | SID160748572 | -0.924 | 63.5 | -0.171 | 74.2 | inactive |
| FTO (FTO alpha-ketoglutarate dependent dioxygenase) | SID160748573 | -0.38 | 74.3 | 0.6 | 70.9 | inactive |
| NHERF4 (NHERF family PDZ scaffold protein 4) | SID160734955 | 0.0132 | 82.1 | 1.32 | 64.9 | inactive |
| NHERF4 (NHERF family PDZ scaffold protein 4) | SID160749603 | 6.71 | 215 | 3.34 | 99.7 | active |
| NHERF4 (NHERF family PDZ scaffold protein 4) | SID160749604 | -0.288 | 76.1 | -0.572 | 98.9 | inactive |
| ZFY (zinc finger protein Y-linked) | SID160718966 | 0.911 | 100 | 0.514 | 97.6 | inactive |
| ZFY (zinc finger protein Y-linked) | SID160718967 | 0.835 | 98.5 | 1.18 | 80.7 | inactive |
| ZFY (zinc finger protein Y-linked) | SID160718968 | -0.226 | 77.4 | -0.376 | 95.5 | inactive |
| CA9 (carbonic anhydrase 9) | SID160731889 | -2 | 42 | -2.14 | 82.5 | inactive |
| CA9 (carbonic anhydrase 9) | SID160733564 | 0.803 | 97.9 | 0.722 | 90.4 | inactive |
| CA9 (carbonic anhydrase 9) | SID160733750 | -2.6 | 30.2 | -4.02 | 97.4 | inactive |
| TTLL10 (tubulin tyrosine ligase like 10) | SID160762161 | -0.0998 | 79.9 | 0.351 | 81.4 | inactive |
| TTLL10 (tubulin tyrosine ligase like 10) | SID160762162 | -1.15 | 59.1 | -0.543 | 76.2 | inactive |
| TTLL10 (tubulin tyrosine ligase like 10) | SID160762163 | 1.75 | 117 | 2.55 | 66.7 | inactive |
| TMCC2 (transmembrane and coiled-coil domain family 2) | SID160723416 | -0.96 | 62.8 | -0.714 | 84.7 | inactive |
| TMCC2 (transmembrane and coiled-coil domain family 2) | SID160723417 | -0.856 | 64.9 | -0.656 | 86.2 | inactive |
| TMCC2 (transmembrane and coiled-coil domain family 2) | SID160723418 | 0.907 | 99.9 | 2.62 | 56 | inactive |
| MATR3 (matrin 3) | SID160723071 | -1.01 | 61.8 | -0.745 | 84 | inactive |
| MATR3 (matrin 3) | SID160723072 | -0.27 | 76.5 | -0.249 | 91.3 | inactive |
| MATR3 (matrin 3) | SID160723073 | 0.107 | 84 | 1.04 | 71.4 | inactive |
| PTN (pleiotrophin) | SID160715349 | -0.79 | 66.2 | -0.588 | 86.3 | inactive |
| PTN (pleiotrophin) | SID160715350 | -0.239 | 77.1 | -0.703 | 104 | inactive |
| PTN (pleiotrophin) | SID160731608 | 1.32 | 108 | 1.2 | 88 | inactive |
| CLSTN3 (calsyntenin 3) | SID160722975 | -0.0781 | 80.3 | 0.259 | 83.9 | inactive |
| CLSTN3 (calsyntenin 3) | SID160722976 | 1.94 | 121 | 0.796 | 109 | inactive |
| CLSTN3 (calsyntenin 3) | SID160722977 | -0.24 | 77.1 | -0.612 | 101 | inactive |
| RPS7 (ribosomal protein S7) | SID160716163 | -2.64 | 29.4 | -1.99 | 55.5 | inactive |
| RPS7 (ribosomal protein S7) | SID160716164 | -2.69 | 28.4 | -1.02 | 41.4 | inactive |
| RPS7 (ribosomal protein S7) | SID160716166 | -2.31 | 36 | -1.66 | 62.3 | inactive |
| CYP3A4 (cytochrome P450 family 3 subfamily A member 4) | SID160751680 | 2.28 | 127 | 0.988 | 110 | inactive |
| CYP3A4 (cytochrome P450 family 3 subfamily A member 4) | SID160751691 | 0.758 | 97 | 0.519 | 94.5 | inactive |
| CYP3A4 (cytochrome P450 family 3 subfamily A member 4) | SID160751702 | 1.25 | 107 | 0.182 | 114 | inactive |
| SCIN (scinderin) | SID160753358 | -0.391 | 74.1 | -0.941 | 106 | inactive |
| SCIN (scinderin) | SID160753359 | -0.575 | 70.4 | -1.36 | 113 | inactive |
| SCIN (scinderin) | SID160753360 | 6.67 | 214 | 4.07 | 82.1 | active |
| S100A7A (S100 calcium binding protein A7A) | SID160764014 | 0.683 | 95.5 | 0.841 | 85.5 | inactive |
| S100A7A (S100 calcium binding protein A7A) | SID160764015 | 0.949 | 101 | 0.702 | 93.6 | inactive |
| S100A7A (S100 calcium binding protein A7A) | SID160764016 | -0.63 | 69.3 | -0.93 | 99 | inactive |
| CLMP (CXADR like cell adhesion molecule) | SID160749535 | -0.165 | 78.6 | -0.767 | 107 | inactive |
| CLMP (CXADR like cell adhesion molecule) | SID160749536 | -0.315 | 75.6 | -0.893 | 107 | inactive |
| CLMP (CXADR like cell adhesion molecule) | SID160749537 | 0.982 | 101 | 0.478 | 99.9 | inactive |
| KIR3DX1 | SID160753535 | -1.54 | 51.2 | -1.04 | 75.3 | inactive |
| KIR3DX1 | SID160753536 | 1.68 | 115 | 0.883 | 102 | inactive |
| KIR3DX1 | SID160753537 | 1.41 | 110 | 1.15 | 90.6 | inactive |
| NUDT1 (nudix hydrolase 1) | SID160731250 | -0.686 | 68.2 | -0.492 | 86.8 | inactive |
| NUDT1 (nudix hydrolase 1) | SID160777526 | -0.395 | 74 | 0.859 | 66 | inactive |
| NUDT1 (nudix hydrolase 1) | SID160777527 | 1.7 | 116 | 1.32 | 91.4 | inactive |
| FFAR1 (free fatty acid receptor 1) | SID160723808 | 1.02 | 102 | 0.143 | 110 | inactive |
| FFAR1 (free fatty acid receptor 1) | SID160723809 | 1.68 | 115 | 1.78 | 80.6 | inactive |
| FFAR1 (free fatty acid receptor 1) | SID160731021 | 0.714 | 96.1 | 0.174 | 103 | inactive |
| TFEB (transcription factor EB) | SID160719504 | -0.579 | 70.4 | -0.0586 | 79.9 | inactive |
| TFEB (transcription factor EB) | SID160719505 | -1.12 | 59.7 | -0.635 | 78.8 | inactive |
| TFEB (transcription factor EB) | SID160731917 | -1.83 | 45.4 | -1.04 | 66.8 | inactive |
| PRL (prolactin) | SID160715044 | 1.19 | 106 | 0.107 | 115 | inactive |
| PRL (prolactin) | SID160715045 | -0.637 | 69.2 | -0.401 | 86 | inactive |
| PRL (prolactin) | SID160715046 | 2.03 | 122 | 1.71 | 87.2 | inactive |
| AURKAIP1 (aurora kinase A interacting protein 1) | SID160731483 | 1.25 | 107 | 0.796 | 96.7 | inactive |
| AURKAIP1 (aurora kinase A interacting protein 1) | SID160742706 | 0.625 | 94.3 | 0.961 | 81.8 | inactive |
| AURKAIP1 (aurora kinase A interacting protein 1) | SID160742707 | -0.194 | 78 | 0.0998 | 84.9 | inactive |
| IMPDH1 (inosine monophosphate dehydrogenase 1) | SID160775825 | -1.03 | 61.3 | 0.148 | 65.9 | inactive |
| IMPDH1 (inosine monophosphate dehydrogenase 1) | SID160775826 | 0.303 | 87.9 | 0.0262 | 97.6 | inactive |
| IMPDH1 (inosine monophosphate dehydrogenase 1) | SID160775827 | -0.328 | 75.4 | -0.372 | 92.9 | inactive |
| DEFB110 (defensin beta 110) | SID160761950 | 2.48 | 131 | 2.34 | 79.1 | inactive |
| DEFB110 (defensin beta 110) | SID160761951 | 5.31 | 187 | 3.83 | 76.3 | active |
| DEFB110 (defensin beta 110) | SID160761952 | -0.79 | 66.2 | -1.23 | 102 | inactive |
| DEFB110 (defensin beta 110) | SID160761953 | -0.537 | 71.2 | -0.297 | 86.1 | inactive |
| DEFB110 (defensin beta 110) | SID160761954 | -0.822 | 65.5 | -0.353 | 80.4 | inactive |
| DEFB110 (defensin beta 110) | SID160761955 | 1.57 | 113 | 1.89 | 77 | inactive |
| TBX6 (T-box transcription factor 6) | SID160717757 | 0.168 | 85.2 | 0.226 | 89.7 | inactive |
| TBX6 (T-box transcription factor 6) | SID160717758 | 1.9 | 120 | 1.27 | 95.7 | inactive |
| TBX6 (T-box transcription factor 6) | SID160731813 | 3.21 | 146 | 2.51 | 84 | active |

Active calls, among the entries above:
| Target gene | PubChem SID | total luciferase, z-score | total luciferase, % of control | luciferase per cell, z-score | viable cells, % of control | Call |
| --- | --- | --- | --- | --- | --- | --- |
| NHERF4 (NHERF family PDZ scaffold protein 4) | SID160749603 | 6.71 | 215 | 3.34 | 99.7 | active |
| SCIN (scinderin) | SID160753360 | 6.67 | 214 | 4.07 | 82.1 | active |
| DEFB110 (defensin beta 110) | SID160761951 | 5.31 | 187 | 3.83 | 76.3 | active |
| TBX6 (T-box transcription factor 6) | SID160731813 | 3.21 | 146 | 2.51 | 84 | active |
